From publication PMC6336889
These are yes or no findings as the source states them, for the method shown. In cells and extracts the contact can be indirect. Some results given as binding are weak or reduced against the parent protein; the word gives no strength.

Chains of the proteins cited; added tags and fusions are not shown. Residues count along the entry.
UniProt Q01638, residues 19-556: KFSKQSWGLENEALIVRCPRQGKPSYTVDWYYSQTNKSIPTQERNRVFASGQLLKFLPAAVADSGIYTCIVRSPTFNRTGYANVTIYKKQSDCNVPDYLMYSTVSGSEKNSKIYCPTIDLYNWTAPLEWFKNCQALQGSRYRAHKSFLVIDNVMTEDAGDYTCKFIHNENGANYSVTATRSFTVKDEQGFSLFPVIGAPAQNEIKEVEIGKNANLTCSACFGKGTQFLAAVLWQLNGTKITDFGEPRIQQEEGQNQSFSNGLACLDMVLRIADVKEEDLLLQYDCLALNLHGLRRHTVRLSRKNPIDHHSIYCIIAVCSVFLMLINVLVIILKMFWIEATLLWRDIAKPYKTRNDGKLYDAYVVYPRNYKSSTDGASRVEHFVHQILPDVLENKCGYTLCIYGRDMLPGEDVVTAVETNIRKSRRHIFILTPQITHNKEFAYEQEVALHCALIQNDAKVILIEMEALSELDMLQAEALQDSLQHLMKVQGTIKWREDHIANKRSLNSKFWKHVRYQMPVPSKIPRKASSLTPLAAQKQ

Molecular target: Myc-HRAS (UniProt P01112)
Test: co-IP; HEK293 cells co-transfected with the tagged candidate and Myc-HRAS; whole cell lysates (RIPA buffer) immunoprecipitated with anti-Myc antibody; immunoblot

- binding: binds
Substance: V5-IL1RL1 (from UniProt Q01638 19-556)
